Test results published in PMC12514221.
These are yes or no findings as the source states them, for the method shown. In cells and extracts the contact can be indirect. Some entries that bind do so weakly or less than the wild type. Sequences can lack the tags named with a protein.

T1: CENTRIN 3 (CETN3), Myc-tagged (human) (UniProt O15182)
T1 sequence: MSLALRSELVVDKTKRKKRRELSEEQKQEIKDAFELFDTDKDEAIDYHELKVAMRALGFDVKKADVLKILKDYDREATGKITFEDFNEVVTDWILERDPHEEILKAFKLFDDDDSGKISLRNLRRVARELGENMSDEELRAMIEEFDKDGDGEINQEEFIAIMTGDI


Target: T1, CENTRIN 3 (CETN3), Myc-tagged (human)
Assay: co-IP; HEK 293T cells transfected with the tagged plasmids, lysed after 48 h; supernatant divided and incubated with Myc-, Flag- and IgG-magnetic beads 4 to 5 h at 4 °C; wash buffer 0.1% Triton X-100, 50 mM Tris-Cl pH 7.4, 150 mM or 500 mM NaCl; Western blot

Row | Binder | binding
1 | USP44, Flag-tagged (enzyme, UniProt Q9H0E7 1-712) MLAMDTCKHVGQLQLAQDHSSLNPQKWHCVDCNTTESIWACLSCSHVACGRYIEEHALKHFQESSHPVALEVNEMYVFCYLCDDYVLNDNTTGDLKLLRRTLSAIKSQNYHCTTRSGRFLRSMGTGDDSYFLHDGAQSLLQSEDQLYTALWHRRRILMGKIFRTWFEQSPIGRKKQEEPFQEKIVVKREVKKRRQELEYQVKAELESMPPRKSLRLQGLAQSTIIEIVSVQVPAQTPASPAKDKVLSTSENEISQKVSDSSVKRRPIVTPGVTGLRNLGNTCYMNSVLQVLSHLLIFRQCFLKLDLNQWLAMTASEKTRSCKHPPVTDTVVYQMNECQEKDTGFVCSRQSSLSSGLSGGASKGRKMELIQPKEPTSQYISLCHELHTLFQVMWSGKWALVSPFAMLHSVWRLIPAFRGYAQQDAQEFLCELLDKIQRELETTGTSLPALIPTSQRKLIKQVLNVVNNIFHGQLLSQVTCLACDNKSNTIEPFWDLSLEFPERYQCSGKDIASQPCLVTEMLAKFTETEALEGKIYVCDQCNSKRRRFSSKPVVLTEAQKQLMICHLPQVLRLHLKRFRWSGRNNREKIGVHVGFEEILNMEPYCCRETLKSLRPECFIYDLSAVVMHHGKGFGSGHYTAYCYNSEGGFWVHCNDSKLSMCTMDEVCKAQAYILFYTQRVTENGHSKLLPPELLLGSQHPNEDADTSSNEILS | binds
2 | USP49, Flag-tagged (enzyme, UniProt Q70CQ1 1-688) MDRCKHVGRLRLAQDHSILNPQKWCCLECATTESVWACLKCSHVACGRYIEDHALKHFEETGHPLAMEVRDLYVFCYLCKDYVLNDNPEGDLKLLRSSLLAVRGQKQDTPVRRGRTLRSMASGEDVVLPQRAPQGQPQMLTALWYRRQRLLARTLRLWFEKSSRGQAKLEQRRQEEALERKKEEARRRRREVKRRLLEELASTPPRKSARLLLHTPRDAGPAASRPAALPTSRRVPAATLKLRRQPAMAPGVTGLRNLGNTCYMNSILQVLSHLQKFRECFLNLDPSKTEHLFPKATNGKTQLSGKPTNSSATELSLRNDRAEACEREGFCWNGRASISRSLELIQNKEPSSKHISLCRELHTLFRVMWSGKWALVSPFAMLHSVWSLIPAFRGYDQQDAQEFLCELLHKVQQELESEGTTRRILIPFSQRKLTKQVLKVVNTIFHGQLLSQVTCISCNYKSNTIEPFWDLSLEFPERYHCIEKGFVPLNQTECLLTEMLAKFTETEALEGRIYACDQCNSKRRKSNPKPLVLSEARKQLMIYRLPQVLRLHLKRFRWSGRNHREKIGVHVVFDQVLTMEPYCCRDMLSSLDKETFAYDLSAVVMHHGKGFGSGHYTAYCYNTEGGFWVHCNDSKLNVCSVEEVCKTQAYILFYTQRTVQGNARISETHLQAQVQSSNNDEGRPQTFS | binds
